# Results from one PubChem assay

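A panel of P. falciparum strains inside erythrocytes is exposed to compounds for three days, then a DNA-binding dye reports the amount of parasite DNA.
Each compound was titrated across a series from about 0.000037 to 29 µM.
The number is the fitted AC50, the concentration giving a half-maximal change in signal; a lower value means higher potency, whether the curve shows a decrease or an increase.
Calls follow the curve class and fit quality: every row here is inconclusive, covering signal-raising curves and weak, poorly fitted, partial or highest-dose-only inhibition curves.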

Values are in nM.
All entries here are filed as inconclusive.
Only part of the assay is shown, chiefly results filed as inconclusive.
Potencies fitted to partial, single-point or poorly fitting curves are rough.

COc1cc(-c2ccc(-[n+]3nc(-c4ccccc4)nn3-c3ccc([N+](=O)[O-])cc3)c(OC)c2)ccc1-[n+]1nc(-c2ccccc2)nn1-c1ccc([N+](=O)[O-])cc1 [DFO2036] read potency 10000 nM (inhibitor, single point).
COc1cc(-c2ccc(-[n+]3nc(-c4ccccc4)nn3-c3ccc([N+](=O)[O-])cc3)c(OC)c2)ccc1-[n+]1nc(-c2ccccc2)nn1-c1ccc([N+](=O)[O-])cc1 [TAB109] read potency 11220 nM (inhibitor, single point).
COc1cc(-c2ccc(-[n+]3nc(-c4ccccc4)nn3-c3ccc([N+](=O)[O-])cc3)c(OC)c2)ccc1-[n+]1nc(-c2ccccc2)nn1-c1ccc([N+](=O)[O-])cc1 [AS120] read potency 11220 nM (inhibitor, single point).
COc1cc(-c2ccc(-[n+]3nc(-c4ccccc4)nn3-c3ccc([N+](=O)[O-])cc3)c(OC)c2)ccc1-[n+]1nc(-c2ccccc2)nn1-c1ccc([N+](=O)[O-])cc1 [CP217] read potency 10000 nM (inhibitor, single point).
COc1cc(-c2ccc(-[n+]3nc(-c4ccccc4)nn3-c3ccc([N+](=O)[O-])cc3)c(OC)c2)ccc1-[n+]1nc(-c2ccccc2)nn1-c1ccc([N+](=O)[O-])cc1 [SC27B] read potency 10000 nM (inhibitor, single point).
COc1cc(-c2ccc(-[n+]3nc(-c4ccccc4)nn3-c3ccc([N+](=O)[O-])cc3)c(OC)c2)ccc1-[n+]1nc(-c2ccccc2)nn1-c1ccc([N+](=O)[O-])cc1 [ATS189] read potency 10000 nM (inhibitor, single point).
COc1cc(-c2ccc(-[n+]3nc(-c4ccccc4)nn3-c3ccc([N+](=O)[O-])cc3)c(OC)c2)ccc1-[n+]1nc(-c2ccccc2)nn1-c1ccc([N+](=O)[O-])cc1 [CP335] read potency 13459 nM (inhibitor, single point).
COc1cc(-c2ccc(-[n+]3nc(-c4ccccc4)nn3-c3ccc([N+](=O)[O-])cc3)c(OC)c2)ccc1-[n+]1nc(-c2ccccc2)nn1-c1ccc([N+](=O)[O-])cc1 [CP291] read potency 19011 nM (inhibitor, single point).
COc1cc(-c2ccc(-[n+]3nc(-c4ccccc4)nn3-c3ccc([N+](=O)[O-])cc3)c(OC)c2)ccc1-[n+]1nc(-c2ccccc2)nn1-c1ccc([N+](=O)[O-])cc1 [Dd2] read potency 10000 nM (inhibitor, single point).
COc1cc(-c2ccc(-[n+]3nc(-c4ccccc4)nn3-c3ccc([N+](=O)[O-])cc3)c(OC)c2)ccc1-[n+]1nc(-c2ccccc2)nn1-c1ccc([N+](=O)[O-])cc1 [CP203] read potency 19011 nM (inhibitor, single point).
COc1cc(-c2ccc(-[n+]3nc(-c4ccccc4)nn3-c3ccc([N+](=O)[O-])cc3)c(OC)c2)ccc1-[n+]1nc(-c2ccccc2)nn1-c1ccc([N+](=O)[O-])cc1 [PC49] read potency 10000 nM (inhibitor, single point).
COc1cc(-c2ccc(-[n+]3nc(-c4ccccc4)nn3-c3ccc([N+](=O)[O-])cc3)c(OC)c2)ccc1-[n+]1nc(-c2ccccc2)nn1-c1ccc([N+](=O)[O-])cc1 [PC15] read potency 11220 nM (inhibitor, single point).
COc1cc(-c2ccc(-[n+]3nc(-c4ccccc4)nn3-c3ccc([N+](=O)[O-])cc3)c(OC)c2)ccc1-[n+]1nc(-c2ccccc2)nn1-c1ccc([N+](=O)[O-])cc1 [HB3] read potency 10000 nM (inhibitor, partial curve).
COc1cc(-c2ccc(-[n+]3nc(-c4ccccc4)nn3-c3ccc([N+](=O)[O-])cc3)c(OC)c2)ccc1-[n+]1nc(-c2ccccc2)nn1-c1ccc([N+](=O)[O-])cc1 [CP286] read potency 11220 nM (inhibitor, single point).
COc1cc(-c2ccc(-[n+]3nc(-c4ccccc4)nn3-c3ccc([N+](=O)[O-])cc3)c(OC)c2)ccc1-[n+]1nc(-c2ccccc2)nn1-c1ccc([N+](=O)[O-])cc1 [TAB113] read potency 12589 nM (inhibitor, single point).
COc1cc(-c2ccc(-[n+]3nc(-c4ccccc4)nn3-c3ccc([N+](=O)[O-])cc3)c(OC)c2)ccc1-[n+]1nc(-c2ccccc2)nn1-c1ccc([N+](=O)[O-])cc1 [CP325] read potency 13459 nM (inhibitor, single point).
COc1cc(-c2ccc(-[n+]3nc(-c4ccccc4)nn3-c3ccc([N+](=O)[O-])cc3)c(OC)c2)ccc1-[n+]1nc(-c2ccccc2)nn1-c1ccc([N+](=O)[O-])cc1 [FAB9] read potency 11220 nM (inhibitor, single point).
COc1cc(-c2ccc(-[n+]3nc(-c4ccccc4)nn3-c3ccc([N+](=O)[O-])cc3)c(OC)c2)ccc1-[n+]1nc(-c2ccccc2)nn1-c1ccc([N+](=O)[O-])cc1 [CP266] read potency 11995 nM (inhibitor, single point).
COc1cc(-c2ccc(-[n+]3nc(-c4ccccc4)nn3-c3ccc([N+](=O)[O-])cc3)c(OC)c2)ccc1-[n+]1nc(-c2ccccc2)nn1-c1ccc([N+](=O)[O-])cc1 [ATS95] read potency 11220 nM (inhibitor, single point).
CC(=O)O[C@]1(C(C)=O)CC[C@H]2[C@@H]3C=C(Cl)C4=CC(=O)CC[C@]4(C)[C@H]3CC[C@@]21C [TAB109] read potency 17782 nM (inhibitor, single point).

Once more, the final 2:

compound	condition	potency (nM)	curve
COc1cc(-c2ccc(-[n+]3nc(-c4ccccc4)nn3-c3ccc([N+](=O)[O-])cc3)c(OC)c2)ccc1-[n+]1nc(-c2ccccc2)nn1-c1ccc([N+](=O)[O-])cc1	ATS95	11220	inhibitor, single point
CC(=O)O[C@]1(C(C)=O)CC[C@H]2[C@@H]3C=C(Cl)C4=CC(=O)CC[C@]4(C)[C@H]3CC[C@@]21C	TAB109	17782	inhibitor, single point

From PubChem BioAssay record AID504749 (NCATS, 2011).